In PMC9842712, “Cryo-EM structure of hnRNPDL-2 fibrils, a functional amyloid associated with limb-girdle muscular dystrophy D3” (Nature Communications, 2022):
Results are given in words; binding and its absence hold for the method and conditions named. Some results given as binding are weak or reduced against the parent protein; the word gives no strength. One block for each binder: values may come before it.

Legend:
[1] = molecular target: hnRNPDL-3 (human heterogeneous ribonucleoprotein D-like, isoform 3) (human) (UniProt O14979); assay: Thioflavin-T fluorescence + negative-stain TEM; 50 µM protein in 50 mM HEPES, 300 mM NaCl, pH 7.5, 37 °C, 600 rpm; read after 24 h, 48 h and 7 days; also 50 and 600 mM NaCl; both purified
[2] = molecular target: hnRNPDL-2 D259H (human) (UniProt O14979); assay: ultracentrifugation through a 20% glycerol cushion, SDS-PAGE of fractions + negative-stain TEM of the bottom fraction; incubated samples (same conditions as for the WT fibrils), 120,000 x g, 2 h, 4 °C; six fractions from top to bottom; both purified
[3] = molecular target: hnRNPDL-2 D259N (human) (UniProt O14979); assay: as above

- binding [1]: no binding (tested: 50 µM)
B1: hnRNPDL-3 (human heterogeneous ribonucleoprotein D-like, isoform 3) (protein, UniProt O14979-3 1-244)
chain: MEDMNEYSNIEEFAEGSKINASKNQQDDGKMFIGGLSWDTSKKDLTEYLSRFGEVVDCTIKTDPVTGRSRGFGFVLFKDAASVDKVLELKEHKLDGKLIDPKRAKALKGKEPPKKVFVGGLSPDTSEEQIKEYFGAFGEIENIELPMDTKTNERRGFCFITYTDEEPVKKLLESRYHQIGSGKCEIKVAQPKEVYRQQQQQQKGGRGAAAGGRGGTRGRGRGQQSTYGKASRGGGNHQNNYQPY

- binding [2]: binds weakly
B2: hnRNPDL-2 D259H (protein, UniProt O14979-2 1-301)
chain: MEDMNEYSNIEEFAEGSKINASKNQQDDGKMFIGGLSWDTSKKDLTEYLSRFGEVVDCTIKTDPVTGRSRGFGFVLFKDAASVDKVLELKEHKLDGKLIDPKRAKALKGKEPPKKVFVGGLSPDTSEEQIKEYFGAFGEIENIELPMDTKTNERRGFCFITYTDEEPVKKLLESRYHQIGSGKCEIKVAQPKEVYRQQQQQQKGGRGAAAGGRGGTRGRGRGQGQNWNQGFNNYYDQGYGNYNSAYGGDQNYSGYGGYHYTGYNYGNYGYGQGYADYSGQQSTYGKASRGGGNHQNNYQPY

- binding [3]: binds weakly
B3: hnRNPDL-2 D259N (protein, UniProt O14979-2 1-301)
chain: MEDMNEYSNIEEFAEGSKINASKNQQDDGKMFIGGLSWDTSKKDLTEYLSRFGEVVDCTIKTDPVTGRSRGFGFVLFKDAASVDKVLELKEHKLDGKLIDPKRAKALKGKEPPKKVFVGGLSPDTSEEQIKEYFGAFGEIENIELPMDTKTNERRGFCFITYTDEEPVKKLLESRYHQIGSGKCEIKVAQPKEVYRQQQQQQKGGRGAAAGGRGGTRGRGRGQGQNWNQGFNNYYDQGYGNYNSAYGGDQNYSGYGGYNYTGYNYGNYGYGQGYADYSGQQSTYGKASRGGGNHQNNYQPY
